Results are given in words; binding and its absence hold for the method and conditions named. In cells and extracts the contact can be indirect. Here binding means that the protein was enriched with, or labelled near, the bait; the list need not be complete.
Target: cellular prion protein (Major prion protein) (mouse (endogenous in brain)) (UniProt P04925)
Assay: affinity purification with mass spectrometry

Protein sequences, listed by entry. Tags and fused reporters are not part of them. Residues count along the entry.
UniProt P61264: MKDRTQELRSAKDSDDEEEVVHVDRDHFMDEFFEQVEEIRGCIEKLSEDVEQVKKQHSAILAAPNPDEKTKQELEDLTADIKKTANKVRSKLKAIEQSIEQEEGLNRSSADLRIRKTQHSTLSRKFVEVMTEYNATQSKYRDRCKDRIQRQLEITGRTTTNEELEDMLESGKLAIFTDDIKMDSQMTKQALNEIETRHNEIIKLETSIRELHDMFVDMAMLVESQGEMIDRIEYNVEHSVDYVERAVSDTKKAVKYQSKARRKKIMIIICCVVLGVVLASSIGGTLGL
UniProt P46096: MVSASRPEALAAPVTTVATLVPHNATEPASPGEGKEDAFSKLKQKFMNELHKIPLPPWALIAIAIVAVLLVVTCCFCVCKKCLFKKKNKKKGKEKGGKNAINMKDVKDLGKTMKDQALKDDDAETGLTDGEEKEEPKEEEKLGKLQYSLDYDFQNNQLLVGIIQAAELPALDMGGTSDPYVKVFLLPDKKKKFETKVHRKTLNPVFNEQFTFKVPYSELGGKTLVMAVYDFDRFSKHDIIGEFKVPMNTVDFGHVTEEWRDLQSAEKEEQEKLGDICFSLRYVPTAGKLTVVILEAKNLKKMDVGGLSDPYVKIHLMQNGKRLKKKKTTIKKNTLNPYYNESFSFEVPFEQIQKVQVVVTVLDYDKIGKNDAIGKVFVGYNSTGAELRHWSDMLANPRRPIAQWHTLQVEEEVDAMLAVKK
UniProt Q9Z1G4: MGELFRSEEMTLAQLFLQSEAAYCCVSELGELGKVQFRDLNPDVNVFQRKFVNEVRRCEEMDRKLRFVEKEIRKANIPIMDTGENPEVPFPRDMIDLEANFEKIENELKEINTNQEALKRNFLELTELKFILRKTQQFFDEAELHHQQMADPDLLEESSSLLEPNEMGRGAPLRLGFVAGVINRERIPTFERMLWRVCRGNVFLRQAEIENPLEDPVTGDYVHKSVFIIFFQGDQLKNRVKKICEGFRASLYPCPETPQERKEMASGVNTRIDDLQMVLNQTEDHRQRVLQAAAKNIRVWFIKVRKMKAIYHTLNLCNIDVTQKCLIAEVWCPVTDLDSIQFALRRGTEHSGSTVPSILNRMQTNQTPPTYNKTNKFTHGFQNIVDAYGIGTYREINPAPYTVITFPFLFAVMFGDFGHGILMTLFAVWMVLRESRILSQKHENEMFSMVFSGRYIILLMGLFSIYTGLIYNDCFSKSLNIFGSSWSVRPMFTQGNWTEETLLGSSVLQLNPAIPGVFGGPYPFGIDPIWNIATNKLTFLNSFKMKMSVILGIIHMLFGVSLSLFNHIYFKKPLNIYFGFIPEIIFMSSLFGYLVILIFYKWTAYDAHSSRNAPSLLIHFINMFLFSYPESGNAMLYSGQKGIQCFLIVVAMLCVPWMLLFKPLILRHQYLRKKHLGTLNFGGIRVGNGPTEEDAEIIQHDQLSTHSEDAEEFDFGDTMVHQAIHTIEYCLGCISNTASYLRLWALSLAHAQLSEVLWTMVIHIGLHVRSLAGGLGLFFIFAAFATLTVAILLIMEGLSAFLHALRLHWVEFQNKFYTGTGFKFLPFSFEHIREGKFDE
UniProt P11627, residues 20-1260: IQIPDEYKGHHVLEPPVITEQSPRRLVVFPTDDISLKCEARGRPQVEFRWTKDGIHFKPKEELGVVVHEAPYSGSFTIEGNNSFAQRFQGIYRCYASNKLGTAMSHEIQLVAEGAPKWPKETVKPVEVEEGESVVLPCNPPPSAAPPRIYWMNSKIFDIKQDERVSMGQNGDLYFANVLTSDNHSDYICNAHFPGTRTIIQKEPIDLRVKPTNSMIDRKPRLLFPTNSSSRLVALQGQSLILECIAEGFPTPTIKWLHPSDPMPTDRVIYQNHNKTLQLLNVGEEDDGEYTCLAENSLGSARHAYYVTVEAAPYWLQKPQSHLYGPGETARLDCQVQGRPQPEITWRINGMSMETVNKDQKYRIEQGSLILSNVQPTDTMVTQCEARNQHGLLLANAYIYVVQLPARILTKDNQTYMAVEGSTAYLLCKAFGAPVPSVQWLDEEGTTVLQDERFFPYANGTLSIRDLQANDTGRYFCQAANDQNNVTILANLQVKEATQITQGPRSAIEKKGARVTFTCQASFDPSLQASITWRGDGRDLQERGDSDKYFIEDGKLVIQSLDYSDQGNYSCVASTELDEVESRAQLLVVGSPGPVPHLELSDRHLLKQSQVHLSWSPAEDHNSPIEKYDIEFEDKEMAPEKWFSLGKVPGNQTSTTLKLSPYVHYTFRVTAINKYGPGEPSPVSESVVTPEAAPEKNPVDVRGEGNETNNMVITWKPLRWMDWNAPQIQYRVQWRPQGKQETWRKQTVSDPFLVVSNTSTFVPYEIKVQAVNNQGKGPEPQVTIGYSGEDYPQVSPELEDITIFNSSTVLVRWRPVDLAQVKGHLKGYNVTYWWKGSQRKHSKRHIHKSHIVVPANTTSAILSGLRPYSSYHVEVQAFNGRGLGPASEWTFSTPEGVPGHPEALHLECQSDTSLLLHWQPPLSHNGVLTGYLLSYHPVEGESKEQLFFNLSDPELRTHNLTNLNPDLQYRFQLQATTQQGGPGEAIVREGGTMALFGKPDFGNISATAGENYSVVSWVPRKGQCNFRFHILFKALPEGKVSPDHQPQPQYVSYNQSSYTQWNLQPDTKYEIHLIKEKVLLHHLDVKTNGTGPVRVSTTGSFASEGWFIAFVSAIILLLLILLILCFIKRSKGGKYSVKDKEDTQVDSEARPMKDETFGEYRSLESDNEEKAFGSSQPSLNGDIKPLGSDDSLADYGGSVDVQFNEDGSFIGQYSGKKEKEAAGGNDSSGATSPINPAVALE
UniProt Q8BG39: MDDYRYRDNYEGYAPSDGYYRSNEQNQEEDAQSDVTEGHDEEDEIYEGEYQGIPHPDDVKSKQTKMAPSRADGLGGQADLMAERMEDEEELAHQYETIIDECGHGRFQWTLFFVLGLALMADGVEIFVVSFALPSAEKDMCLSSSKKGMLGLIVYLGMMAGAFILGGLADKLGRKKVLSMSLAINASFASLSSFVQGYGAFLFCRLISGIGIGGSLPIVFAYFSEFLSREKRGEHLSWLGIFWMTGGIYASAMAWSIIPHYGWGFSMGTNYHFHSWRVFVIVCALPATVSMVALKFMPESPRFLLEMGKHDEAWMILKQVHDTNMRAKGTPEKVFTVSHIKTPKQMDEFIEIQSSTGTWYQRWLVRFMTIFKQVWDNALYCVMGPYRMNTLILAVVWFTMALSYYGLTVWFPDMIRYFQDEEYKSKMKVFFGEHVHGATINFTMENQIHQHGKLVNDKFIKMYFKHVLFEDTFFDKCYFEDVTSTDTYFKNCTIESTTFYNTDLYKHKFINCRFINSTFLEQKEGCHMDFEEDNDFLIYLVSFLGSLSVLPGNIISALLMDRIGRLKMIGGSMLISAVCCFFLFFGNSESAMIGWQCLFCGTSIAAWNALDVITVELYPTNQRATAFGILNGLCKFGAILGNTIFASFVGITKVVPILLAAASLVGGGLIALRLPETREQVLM
UniProt P60879: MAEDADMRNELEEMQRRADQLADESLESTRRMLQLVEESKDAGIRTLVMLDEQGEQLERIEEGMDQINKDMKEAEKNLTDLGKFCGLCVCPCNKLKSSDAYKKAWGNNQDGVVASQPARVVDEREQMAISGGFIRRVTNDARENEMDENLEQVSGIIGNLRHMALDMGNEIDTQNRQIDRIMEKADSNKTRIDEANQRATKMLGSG
UniProt G5E829: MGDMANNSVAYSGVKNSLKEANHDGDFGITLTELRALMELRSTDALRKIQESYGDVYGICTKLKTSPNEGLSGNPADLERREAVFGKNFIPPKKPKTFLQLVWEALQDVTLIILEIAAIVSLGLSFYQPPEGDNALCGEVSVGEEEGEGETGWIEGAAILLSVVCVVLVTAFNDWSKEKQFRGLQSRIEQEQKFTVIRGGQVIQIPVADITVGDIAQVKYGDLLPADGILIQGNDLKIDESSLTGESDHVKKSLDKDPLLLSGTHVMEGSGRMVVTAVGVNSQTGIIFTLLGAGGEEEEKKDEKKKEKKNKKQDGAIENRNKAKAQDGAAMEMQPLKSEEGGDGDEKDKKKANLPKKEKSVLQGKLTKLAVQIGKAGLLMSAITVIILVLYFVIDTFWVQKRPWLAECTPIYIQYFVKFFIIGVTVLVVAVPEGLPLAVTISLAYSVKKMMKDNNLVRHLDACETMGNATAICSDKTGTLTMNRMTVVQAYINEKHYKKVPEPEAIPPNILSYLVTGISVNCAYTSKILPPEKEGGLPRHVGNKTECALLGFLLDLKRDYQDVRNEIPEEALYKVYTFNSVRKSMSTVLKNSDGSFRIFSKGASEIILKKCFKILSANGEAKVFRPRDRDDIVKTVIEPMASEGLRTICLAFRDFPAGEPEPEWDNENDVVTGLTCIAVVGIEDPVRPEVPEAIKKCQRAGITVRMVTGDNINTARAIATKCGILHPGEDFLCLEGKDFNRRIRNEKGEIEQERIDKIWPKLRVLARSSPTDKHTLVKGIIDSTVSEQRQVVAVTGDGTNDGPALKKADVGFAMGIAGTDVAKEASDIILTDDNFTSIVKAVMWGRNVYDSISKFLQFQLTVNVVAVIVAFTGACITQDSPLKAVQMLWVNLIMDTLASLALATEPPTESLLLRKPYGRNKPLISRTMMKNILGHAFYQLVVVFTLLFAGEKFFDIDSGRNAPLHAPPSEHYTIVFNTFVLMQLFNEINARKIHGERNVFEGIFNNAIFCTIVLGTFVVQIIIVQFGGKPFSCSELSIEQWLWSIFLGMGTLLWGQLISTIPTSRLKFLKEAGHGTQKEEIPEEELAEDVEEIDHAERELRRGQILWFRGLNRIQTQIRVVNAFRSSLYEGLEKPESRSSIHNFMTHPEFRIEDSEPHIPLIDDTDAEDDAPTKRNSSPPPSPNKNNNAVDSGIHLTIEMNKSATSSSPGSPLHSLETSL
UniProt P43006: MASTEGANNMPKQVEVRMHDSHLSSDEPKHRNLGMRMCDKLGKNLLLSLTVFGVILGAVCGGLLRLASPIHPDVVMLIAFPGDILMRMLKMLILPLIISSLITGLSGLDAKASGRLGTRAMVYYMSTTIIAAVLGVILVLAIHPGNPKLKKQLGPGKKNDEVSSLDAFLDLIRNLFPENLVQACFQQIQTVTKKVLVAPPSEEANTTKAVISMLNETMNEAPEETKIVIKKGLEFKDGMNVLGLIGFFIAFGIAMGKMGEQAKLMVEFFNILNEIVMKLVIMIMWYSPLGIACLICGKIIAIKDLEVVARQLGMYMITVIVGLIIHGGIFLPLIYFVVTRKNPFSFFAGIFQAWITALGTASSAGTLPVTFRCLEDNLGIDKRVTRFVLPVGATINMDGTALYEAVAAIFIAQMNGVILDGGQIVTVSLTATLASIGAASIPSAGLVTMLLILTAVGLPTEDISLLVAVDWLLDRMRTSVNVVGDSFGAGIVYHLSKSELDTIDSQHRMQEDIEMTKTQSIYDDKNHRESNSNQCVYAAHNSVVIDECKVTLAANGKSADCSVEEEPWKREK
UniProt Q02053: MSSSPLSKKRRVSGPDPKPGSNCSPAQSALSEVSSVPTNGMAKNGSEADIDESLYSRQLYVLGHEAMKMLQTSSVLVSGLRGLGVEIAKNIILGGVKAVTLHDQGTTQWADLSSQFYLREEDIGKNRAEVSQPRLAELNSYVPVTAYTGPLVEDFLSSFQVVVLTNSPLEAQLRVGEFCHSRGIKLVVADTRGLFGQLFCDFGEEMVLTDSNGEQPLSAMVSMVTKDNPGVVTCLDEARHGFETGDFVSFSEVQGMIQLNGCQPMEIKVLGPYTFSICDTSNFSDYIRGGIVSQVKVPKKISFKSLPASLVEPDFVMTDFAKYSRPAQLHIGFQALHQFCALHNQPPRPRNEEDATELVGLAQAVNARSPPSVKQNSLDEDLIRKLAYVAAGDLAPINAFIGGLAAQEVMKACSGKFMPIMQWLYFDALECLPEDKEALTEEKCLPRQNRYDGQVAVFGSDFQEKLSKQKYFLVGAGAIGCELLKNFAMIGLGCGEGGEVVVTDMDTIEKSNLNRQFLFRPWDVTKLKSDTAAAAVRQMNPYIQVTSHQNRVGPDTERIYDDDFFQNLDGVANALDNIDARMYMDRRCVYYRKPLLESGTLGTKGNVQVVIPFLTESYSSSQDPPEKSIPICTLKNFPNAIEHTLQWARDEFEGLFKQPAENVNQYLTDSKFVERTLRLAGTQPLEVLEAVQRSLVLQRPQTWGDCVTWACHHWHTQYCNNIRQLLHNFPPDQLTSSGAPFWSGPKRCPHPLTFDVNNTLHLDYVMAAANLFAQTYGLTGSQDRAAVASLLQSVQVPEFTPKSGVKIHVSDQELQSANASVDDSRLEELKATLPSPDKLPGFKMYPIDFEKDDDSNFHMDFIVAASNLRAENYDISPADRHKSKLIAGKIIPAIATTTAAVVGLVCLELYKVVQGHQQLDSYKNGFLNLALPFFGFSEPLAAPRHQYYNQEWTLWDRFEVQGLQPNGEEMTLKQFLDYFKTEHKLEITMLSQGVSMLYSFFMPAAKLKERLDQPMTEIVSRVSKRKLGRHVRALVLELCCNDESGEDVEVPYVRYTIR

Row | Molecule | binding
1 | Stx1b (from UniProt P61264 1-288) | binds
2 | peptidyl-prolyl cis-trans isomerase A (from UniProt P17742 1-164) | binds
3 | Syt1 (from UniProt P46096 1-421) | binds
4 | Atp6v0a1 (from UniProt Q9Z1G4 1-839) | binds
5 | neural cell adhesion molecule L1 (from UniProt P11627 20-1260) | binds
6 | neural cell adhesion molecule 1 (from UniProt P13595 20-1115) | binds
7 | Sv2b (from UniProt Q8BG39 1-683) | binds
8 | Snap25 (from UniProt P60879 1-206) | binds
9 | dipeptidyl peptidase Dpp6 (from UniProt Q9Z218 1-804) | binds
10 | Atp2b1 (from UniProt G5E829 1-1220) | binds
11 | neuronal cell adhesion molecule (from UniProt Q810U4 30-1256) | binds
12 | Atp2b2 (from UniProt Q9R0K7 1-1198) | binds
13 | dipeptidyl peptidase Dpp10 (from UniProt Q6NXK7 1-797) | binds
14 | excitatory amino acid transporter 2 (from UniProt P43006 1-572) | binds
15 | ubiquitin-like modifier-activating enzyme 1 (from UniProt Q02053 1-1058) | binds
16 | contactin-1 (protein, UniProt P12960 21-1001) DFTWHRRYGHGVSEEDKGFGPIFEEQPINTIYPEESLEGKVSLNCRARASPFPVYKWRMNNGDVDLTNDRYSMVGGNLVINNPDKQKDAGVYYCLASNNYGMVRSTEATLSFGYLDPFPPEERPEVKVKEGKGMVLLCDPPYHFPDDLSYRWLLNEFPVFITMDKRRFVSQTNGNLYIANVESSDRGNYSCFVSSPSITKSVFSKFIPLIPIPERTTKPYPADIVVQFKDIYTMMGQNVTLECFALGNPVPDIRWRKVLEPMPSTAEISTSGAVLKIFNIQLEDEGLYECEAENIRGKDKHQARIYVQAFPEWVEHINDTEVDIGSDLYWPCIATGKPIPTIRWLKNGYSYHKGELRLYDVTFENAGMYQCIAENAYGSIYANAELKILALAPTFEMNPMKKKILAAKGGRVIIECKPKAAPKPKFSWSKGTEWLVNSSRILIWEDGSLEINNITRNDGGIYTCFAENNRGKANSTGTLVITNPTRIILAPINADITVGENATMQCAASFDPALDLTFVWSFNGYVIDFNKEITHIHYQRNFMLDANGELLIRNAQLKHAGRYTCTAQTIVDNSSASADLVVRGPPGPPGGLRIEDIRATSVALTWSRGSDNHSPISKYTIQTKTILSDDWKDAKTDPPIIEGNMESAKAVDLIPWMEYEFRVVATNTLGTGEPSIPSNRIKTDGAAPNVAPSDVGGGGGTNRELTITWAPLSREYHYGNNFGYIVAFKPFDGEEWKKVTVTNPDTGRYVHKDETMTPSTAFQVKVKAFNNKGDGPYSLVAVINSAQDAPSEAPTEVGVKVLSSSEISVHWKHVLEKIVESYQIRYWAGHDKEAAAHRVQVTSQEYSARLENLLPDTQYFIEVGACNSAGCGPSSDVIETFTRKAPPSQPPRIISSVRSGSRYIITWDHVVALSNESTVTGYKILYRPDGQHDGKLFSTHKHSIEVPIPRDGEYVVEVRAHSDGGDGVVSQVKISGVSTLS | binds
17 | myelin-associated glycoprotein (protein, UniProt P20917 20-627) GHWGAWMPSTISAFEGTCVSIPCRFDFPDELRPAVVHGVWYFNSPYPKNYPPVVFKSRTQVVHESFQGRSRLLGDLGLRNCTLLLSTLSPELGGKYYFRGDLGGYNQYTFSEHSVLDIVNTPNIVVPPEVVAGTEVEVSCMVPDNCPELRPELSWLGHEGLGEPTVLGRLREDEGTWVQVSLLHFVPTREANGHRLGCQAAFPNTTLQFEGYASLDVKYPPVIVEMNSSVEAIEGSHVSLLCGADSNPPPLLTWMRDGMVLREAVAKSLYLDLEEVTPGEDGVYACLAENAYGQDNRTVELSVMYAPWKPTVNGTVVAVEGETVSILCSTQSNPDPILTIFKEKQILATVIYESQLQLELPAVTPEDDGEYWCVAENQYGQRATAFNLSVEFAPIILLESHCAAARDTVQCLCVVKSNPEPSVAFELPSRNVTVNETEREFVYSERSGLLLTSILTIRGQAQAPPRVICTSRNLYGTQSLELPFQGAHRLMWAKIGPVGAVVAFAILIAIVCYITQTRRKKNVTESSSFSGGDNPHVLYSPEFRISGAPDKYESEKQRLGSERRLLGLRGESPELDLSYSHSDLGKRPTKDSYTLTEELAEYAEIRVK | binds
18 | immunoglobulin superfamily member 8 (protein, UniProt Q8R366 26-611) RQVHVPRGPLYRVAGTAVSISCNVSDYEGPAQQDFEWFMYRPEAPATSLGIVSTKDSQFSYAVFGPRVASGDLQVQRLKGDSVVLKIARLQAQDSGFYECYTPSTDTQYLGNYSAKVELRVLPDELQVSAAPPGPRGRQAATSPSRLTVHEGQELALGCLAQTKTKKHTHLSVSFGRAIPEAPVGRATLQEVVGLRSDMAVEAGAPYAERLASGELRLSKEGTDRYRMVVGGAQAGDSGTYHCTAAEWIQDPDGSWVQVAEKRAVLAHVDVQTLSSQLAVTVGPGERRIGPGEPLELLCNVSGALPPPGRHAAYSVGWEMAPAGAPGPGRLVAQLDTEGIGSLGPGYEDRHIAMEKVASRTYRLRLEAARPADAGTYRCLAKAYVRGSGTRLREAASARSRPLPVHVREEGVVLEAVAWLAGGTVYRGETASLLCNISVRGGPPGLRLAASWWVERPEEGELSSGPAQLVGGVGQDGVAELGVRPGGGPVSVELVGPRSHRLRLHGLGPEDEGIYHCAPSAWVQHADYSWYQAGSARSGPVTVYPYTHAVDTLFVPLLVGTGVALVTGASVLATITCCFMKRMRKR | binds
19 | neurofascin (protein, UniProt Q810U3 25-1240) IEIPMDPSIQNELTQPPTITKQSVKDHIVDPRDNILIECEAKGNPAPSFHWTRNSRFFNIAKDPRVSMRRRSGTLVIDFRSGGRPEEYEGEYQCFARNKFGTALSNRIRLQVSKSPLWPKENLDPVVVQEGAPLTLQCNPPPGLPSPVIFWMSSSMEPITQDKRVSQGHNGDLYFSNVMLQDMQTDYSCNARFHFTHTIQQKNPFTLKVLTTRGVAERTPSFMYPQGTSSSQMVLRGMDLLLECIASGVPTPDIAWYKKGGDLPSNKAKFENFNKALRITNVSEEDSGEYFCLASNKMGSIRHTISVRVKAAPYWLDEPKNLILAPGEDGRLVCRANGNPKPTVQWMVNGEPLQSAPPNPNREVAGDTIIFRDTQISSRAVYQCNTSNEHGYLLANAFVSVLDVPPRMLSARNQLIRVILYNRTRLDCPFFGSPIPTLRWFKNGQGSNLDGGNYHVYENGSLEIKMIRKEDQGIYTCVATNILGKAENQVRLEVKDPTRIYRMPEDQVAKRGTTVQLECRVKHDPSLKLTVSWLKDDEPLYIGNRMKKEDDSLTIFGVAERDQGSYTCMASTELDQDLAKAYLTVLADQATPTNRLAALPKGRPDRPRDLELTDLAERSVRLTWIPGDDNNSPITDYVVQFEEDQFQPGVWHDHSRFPGSVNSAVLHLSPYVNYQFRVIAVNEVGSSHPSLPSERYRTSGAPPESNPSDVKGEGTRKNNMEITWTPMNATSAFGPNLRYIVKWRRRETRETWNNVTVWGSRYVVGQTPVYVPYEIRVQAENDFGKGPEPDTIIGYSGEDLPSAPRRFRVRQPNLETINLEWDHPEHPNGILIGYILRYVPFNGTKLGKQMVENFSPNQTKFSVQRADPVSRYRFSLSARTQVGSGEAATEESPAPPNEATPTAAPPTLPPTTVGTTGLVSSTDATALAATSEATTVPIIPTVVPTTVATTIATTTTTTAATTTTTTTESPPTTTAGTKIHETAPDEQSIWNVTVLPNSKWANITWKHNFRPGTDFVVEYIDSNHTKKTVPVKAQAQPIQLTDLFPGMTYTLRVYSRDNEGISSTVITFMTSTAYTNNQADIATQGWFIGLMCAIALLVLILLIVCFIKRSRGGKYPVREKKDVPLGPEDPKEEDGSFDYSDEDNKPLQGSQTSLDGTIKQQESDDSLVDYGEGGEGQFNEDGSFIGQYTVKKDKEETEGNESSEATSPVNAIYSLA | binds
20 | Ncam2 (protein, UniProt O35136 20-837) LLQVTISLSKVELSVGESKFFTCTAIGEPESIDWYNPQGEKIISTQRVMLQKEGVRSRLTIYNANIEDAGIYRCQATDAKGQTQEATVVLEIYQKLTFREVVSPQEFKQGEDAEVVCRVSSSPAPAVSWLYHNEEVTTIPDNRFAVLANNNLQILNINKSDEGIYRCEGRVEARGEIDFRDIIVIVNVPPAIMMPQKSFNATAERGEEMTLTCKASGSPDPTISWFRNGKLIEENEKYILKGSNTELTVRNIINKDGGSYVCKATNKAGEDQKQAFLQVFVQPHILQLKNETTSENGHVTLVCEAEGEPVPEITWKRAIDGVMFSEGDKSPDGRIEVKGQHGRSSLHIRDVKLSDSGRYDCEAASRIGGHQRSMHLDIEYAPKFVSNQTMYYSWEGNPINISCDVTANPPASIHWRREKLLLPAKNTTHLKTHSVGRKMILEIAPTSDNDFGRYNCTATNRIGTRFQEYILELADVPSSPHGVKIIELSQTTAKISFNKPESHGGVPIHHYQVDVKEVASETWKIVRSHGVQTMVVLSSLEPNTTYEIRVAAVNGKGQGDYSKIEIFQTLPVREPSPPSIHGQPSSGKSFKISITKQDDGGAPILEYIVKYRSKDKEDQWLEKKVQGNKDHIILEHLQWTMGYEVQITAANRLGYSEPTVYEFSMPPKPNIIKDTLFNGLGLGAIIGLGVAALLLILVVTDVSCFFIRQCGLLMCITRRMCGKKSGSSGKSKELEEGKAAYLKDGSKEPIVEMRTEDERITNHEDGSPVNEPNETTPLTEPEKLPLKEENGKEVLNAETIEIKVSNDIIQSKEDDIKA | binds
21 | cell adhesion molecule 3 (protein, UniProt Q99N28 23-396) NLSQDDSQPWTSDETVVAGGTVVLKCQVKDHEDSSLQWSNPAQQTLYFGEKRALRDNRIQLVSSTPHELSISISNVALADEGEYTCSIFTMPVRTAKSLVTVLGIPQKPIITGYKSSLREKETATLNCQSSGSKPAAQLTWRKGDQELHGDQTRIQEDPNGKTFTVSSSVSFQVTREDDGANIVCSVNHESLKGADRSTSQRIEVLYTPTAMIRPEPAHPREGQKLLLHCEGRGNPVPQQYVWVKEGSEPPLKMTQESALIFPFLNKSDSGTYGCTATSNMGSYTAYFTLNVNDPSPVPSSSSTYHAIIGGIVAFIVFLLLILLIFLGHYLIRHKGTYLTHEAKGSDDAPDADTAIINAEGGQSGGDDKKEYFI | binds

Reference: publication PMC8631662
